# Results of single-concentration screens

Data taken from ChEMBL document CHEMBL3988442, “University of Dundee, Small-Polar-MMV Screening Library” (2021).

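Whole-parasite assay of Trypanosoma brucei over 72 hours; the read-out is not stated. Compounds at 30 µM. Direction is inferred from retests: higher values go with stronger inhibition. Values scatter widely below zero; nearly all retest evidence comes from the higher of the two concentrations used. Of about 64,000 compounds tested this way, about 940 (1.5%) reached 50% or more in at least one test.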

Results are given as percent effect. The controls that fix the scale are not given in the record; negative values are as filed. The compounds are a random part of those screened.

compound,Percent Effect
c1cnn(CC2CN(Cc3nc(-c4ccsc4)no3)CCO2)c1 (stereo unspecified),-31.15%
O=C(NCC(=O)N1CCCCC1)c1ccc(Cl)cc1I,14.93%
Cc1ccccc1-c1noc(CN2CCn3c(nnc3C3CC3)C2)n1,6.919%
CC(=O)Nc1ccc(Oc2ccc3c(c2)OCO3)nc1,7.113%
COCCS(=O)(=O)NC(C)c1ccccc1Cl (stereo unspecified),-5.147%
Cc1cccc(CN(Cc2cccnc2)C2CC(C)(C)NC(C)(C)C2)n1.O=C(O)CC(O)(CC(=O)O)C(=O)O,-21.3%
[H][C@]12CN(Cc3ccc(OC)cc3)C[C@@]1([H])S(=O)(=O)CC[C@@H]2C(=O)NC,7.296%
CCOCCCNC(=O)NCc1c(C)nn(C)c1C,-8.71%
Cc1nc(CC(=O)N2CCC(c3nn(C)c4ncccc34)CC2)cs1.Cl,-0.1923%
Cc1nc(CN2CCCN(CC(=O)Nc3ccncc3)CC2)no1,-1.898%
CC(C)Oc1ncc(C(=O)N2CCC(CC(N)=O)CC2)cc1Cl,-51.28%
Cc1ccc(CN2CCC3(CC2)C(c2ccccc2)CC(=O)N3C)o1.O=C(O)C(F)(F)F (stereo unspecified),-83.16%
[H][C@]12CN(c3ncc(CC)cn3)C[C@@]1([H])S(=O)(=O)CC[C@@H]2C(=O)NCC(C)C,-100.9%
Cc1nc(C2CCCNC2)nc2c1CCCN2Cc1ccccn1.Cl.Cl (stereo unspecified),-3.005%
OC(CN1CCOCC1)c1ccc(Br)cc1 (stereo unspecified),-23.32%
O=C(c1ccc(CN2CC(n3cccn3)C2)cc1)N1CCCC1,-18.89%
[H][C@]12CC[C@]([H])(CN(CC(=O)N(C)C)C1)N(Cc1cc(F)ccc1F)C2,-80.96%
CC(C)N1CCC(N2CCCC(C(=O)NCC3(C)COC3)C2)CC1 (stereo unspecified),6.748%
CCC(C)C(=O)NCc1ccc(-n2cncn2)nc1 (stereo unspecified),6.413%
O=C(O)C(F)(F)F.[H][C@@]12CCN(C3CCC3)[C@]1([H])CC[C@H](C(=O)NCc1cccs1)O2,-12.3%
CN(Cc1cc[nH]n1)C(=O)c1ccc2c(c1)nc(N1CC[C@H](O)C1)n2C,-42.07%
Cc1nn(C)c2c(N(C)Cc3ccco3)nc(C3CC3)nc12,-43.7%
[H][C@@]12CS(=O)(=O)C[C@]1([H])N(S(=O)(=O)c1ccccc1OC)CCN2C,-93.27%
CC(O)c1cccc(OCc2ccon2)c1 (stereo unspecified),-59.14%
Cc1cc(C)n(-c2ccc(NCCNS(=O)(=O)c3ccccc3)nn2)n1,-1.182%
CC(C)NC(=O)Nc1ccc(CS(C)(=O)=O)cc1,-14.99%
Cc1ccc(C(=O)N2CC(=O)N(Cc3ccco3)CC(O)C2)cc1 (stereo unspecified),-36.89%
Cn1cc(N2CCCC(SCc3ccco3)C2=O)cn1 (stereo unspecified),-16.46%
Cn1cc(CN2CCc3onc(C(=O)N4CCCC4)c3C2)cn1.O=C(O)C(F)(F)F,-19.54%
COc1cc(C)sc1C(=O)NCCC(=O)N(C)c1ccccc1,-5.534%
COc1cccc(CN(C)C(=O)CN2CCN(c3nccn3C)CC2)c1,2.933%
CC[C@@]1(O)CCN(Cc2cc(C3CCCCC3)no2)C[C@H]1O,-4.115%
O=C(O)C(F)(F)F.[H][C@@]12CCN(Cc3sccc3C)C[C@]1(COC)CCO2,-26.91%
[H][C@@]12CCN(C(=O)c3cccn3C)[C@@]1([H])CC(=O)N2CC1CCOCC1,-43.68%
O=C(CCc1cc(Cl)no1)N1CCCCC1CCN1CCOCC1 (stereo unspecified),-23.08%
CC(C)c1cc(NC(CO)CO)n2nccc2n1,-4.494%
CCn1cnnc1C1CCN(C(=O)c2cc(OC)ccc2OC)CC1,-16.69%
Cc1ccc(N2CCCC(NCC3=Cc4ccccc4OC3)C2)nn1 (stereo unspecified),-17.12%
CC(C)c1ccc(/C=C/CC(=O)NC2CCN(C(N)=O)C2)cc1 (stereo unspecified),-42.35%
COc1cccc(CNC(=O)c2cc(C)nc(N3CCCC3)n2)c1,-86.35%
[H][C@@]12CCN(C(=O)Cc3cccs3)C[C@]1([H])OCCNC2=O,-34.31%
COc1ccc(-c2cc3nn(CC(=O)NC(C)C)c(=O)n3c(C)n2)cc1,-13.21%
O=C(NCCCN1CCN(c2ncccn2)CC1)NCC1CCCO1 (stereo unspecified),-13.72%
CCc1cc(NC2CCOCC2)n2nc(C)c(C)c2n1,-30.56%
CCOc1ccccc1N1CCN(C(=O)NCc2cc[nH]n2)CC1,-8.303%
CC(C)Cc1ncc2c(n1)CN(c1nccc(NC(C)C)n1)C2,89.54%
Cc1cncc(C2CCN(C(=O)CCc3ccnn3C)CC2)n1,-36.5%
CCN(CC)S(=O)(=O)NCC1Cc2ccccc2O1 (stereo unspecified),-33.88%
O=C(O)C(F)(F)F.[H][C@@]12OCCN(Cc3csc(C)n3)[C@@]1([H])CC[C@H]2OCC(=O)N(C)C,-32.64%
CC(C)c1nc(CN(C)Cc2ccc(F)cc2)cs1,-4.307%
COC(=O)NC1(C(=O)Nc2ccc(-c3ncc[nH]3)cc2)CCCC1,-13.53%
[H][C@@]12CC(=O)N(C)[C@@]1([H])CCN2S(=O)(=O)Cc1ccc(C)cc1,-11.57%
Cc1nnc(CN(C)CCCOc2cccc(Cl)c2)o1,-14.32%
Cc1ccccc1C(=O)Nc1cnn(CCN2CCOCC2)c1,11%
O=C(O)C(F)(F)F.O=C(O)C(F)(F)F.[H][C@]12CCN(C(=O)NCc3cccnc3)C[C@@]1([H])OCCN(CCOC)C2,-26.75%
CC(C)n1nc(CN2CCCC2=O)c2c1CN(C(=O)c1ccco1)C2,-79.85%
CCc1nnc(CNC(=O)CCC2CCCN(C)C2)s1 (stereo unspecified),-2.645%
CCN(Cc1ccc2c(c1)OCO2)C(=O)CCc1c(C)nc(C)[nH]c1=O,-34%
O=C(O)C(F)(F)F.[H][C@]12CCC(=O)N(c3ccccc3)[C@@]1([H])CCN2c1ncc(F)cn1,-91.67%

Some entries from above, unchanged:

compound,Percent Effect
Cc1nc(C2CCCNC2)nc2c1CCCN2Cc1ccccn1.Cl.Cl (stereo unspecified),-3.005%
Cc1nc(CN2CCCN(CC(=O)Nc3ccncc3)CC2)no1,-1.898%
CC(C)Cc1ncc2c(n1)CN(c1nccc(NC(C)C)n1)C2,89.54%
COc1cccc(CN(C)C(=O)CN2CCN(c3nccn3C)CC2)c1,2.933%
CCN(CC)S(=O)(=O)NCC1Cc2ccccc2O1 (stereo unspecified),-33.88%
CC(C)NC(=O)Nc1ccc(CS(C)(=O)=O)cc1,-14.99%